According to patent US20200190172A1, “METHOD FOR DIAGNOSING/DETERMINING THE EFFECTIVENESS OF TREATMENT FOR DEPRESSION” (Centre National De La Recherche Scientifique, priority 2016, published 2020):
Part of at least one peptide drawing is inferred or uncertain, most often the ends. Where no end group is shown, it is not given here.

Legend:
[1] = tested on: anti-spadin antibodies (AB1 polyclonal antibody); assay: AlphaLISA competition assay: biotinylated spadin / anti-spadin antibody displaced by peptides; type: binding, rabbit; conditions: for recognition by the anti-spadin antibodies (AB1): AlphaLISA, FIG. 1A-1C
mice = assay: Porsolt Forced Swim Test (FST); type: in vivo, mice (C57BL/6J); conditions: intravenous injection
Description: The experiments were performed on males of 20-25 g C57BL/6J of 8-10 weeks old (January France Elevage) in accordance with the policies on the welfare and use of laboratory animals set out in European Community Directive 2010/63/EU. The local ethics committee (CIEPAL) has approved the protocols used in this study (Protocol Number 00.893.02).
After intravenous injection of saline solution or various tested peptides, the mice (n=10-12 per group) were placed individually in a cylinder (height: 30 cm, diameter: 15 cm) filled with water to a depth of 12 cm (temperature: 22±1° C.) for 6 min. The total immobility time was recorded during the final 4 min (Porsolt et al., 1977).

AB2 polyclonal antibody = assay: Recognition of PE fragments by AB2 polyclonal antibody (FIG. 1A); type: binding, rabbit
Description: FIG. 1: FIG. 1A is a diagram representing the structure/recognition relationships of the antibodies AB1 and AB2 according to the different fragments. […] FIGS. 1B and 1C represent the relative affinities for spadin, PE and analogs assayed by the detection method.
In particular, antibodies AB1 and AB2 were obtained by injecting into two rabbits, namely Oryctolagus cuniculus, spadin coupled to KLH (Keyhole limpet hemocyanin protein) (AB1) or mini-spadin (22-28 PE) coupled to KLH (AB2) on day 0, DO (1 mg), day 7, D7 (1 mg), day 14, D14 (1 mg) and day 29, D29 (1 mg). Blood samples, namely 20 ml, were taken on day 27 (D27) and day 42 (D42). The polyclonal serum was obtained by centrifuging at 1200×g for 10 min. The polyclonal serum corresponding to the supernatant was recovered. The immune response was checked by ELISA for each antibody. The antibodies contained in the serum were kept at −20° C.

TREK-1 potassium channel = target: T1, TREK-1 potassium channel (Mus musculus, UniProt P97438); conditions: injected intravenously or intraperitoneally into mice; by inhibiting TREK-1 channel activity; cited from earlier work
T1 construct: host or cells: living mice (endogenous channel)
T1 sequence (P97438 1-426): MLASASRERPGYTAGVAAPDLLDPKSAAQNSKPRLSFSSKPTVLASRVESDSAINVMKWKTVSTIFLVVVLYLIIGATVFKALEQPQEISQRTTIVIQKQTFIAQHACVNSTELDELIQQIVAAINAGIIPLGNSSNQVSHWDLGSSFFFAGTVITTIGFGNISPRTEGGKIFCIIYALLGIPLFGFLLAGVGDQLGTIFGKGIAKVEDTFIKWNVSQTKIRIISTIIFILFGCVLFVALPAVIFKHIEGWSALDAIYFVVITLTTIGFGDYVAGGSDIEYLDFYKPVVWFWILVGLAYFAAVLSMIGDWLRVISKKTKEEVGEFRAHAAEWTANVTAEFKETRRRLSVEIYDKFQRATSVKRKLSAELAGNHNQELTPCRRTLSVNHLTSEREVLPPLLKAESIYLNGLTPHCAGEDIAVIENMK

## QDRLDAPPPPAAPLPRWSGPIGVSWGLRAAAAGGAFPRGGRWRR [PE]
[1]
  recognition by the anti-spadin antibodies (AB1): recognized
[1]; listed as SEQ ID NO 1
  recognition by the anti-spadin antibodies (AB1): binds
[1]; competition with 10 nM biotinylated spadin, antibody 1:1000
  IC50: 2.18 nM
mice
  Antidepressant activity: showed an antidepressant activity
mice; listed as 1-44 PE or PE
  Antidepressant activity: Yes
AB2 polyclonal antibody
  binding by AB2 polyclonal antibody: bound
TREK-1 potassium channel
  antidepressant (AD) activities: powerful antidepressant (AD) activities
